The amount applied is not stated for every result.
Experiments:
[1] = LC-MS/MS measurement of bile acids A and B in NPC1 and control dried blood spots (peak area); format: in vivo, human; conditions: NPC1 vs control dried blood spots
[2] = NPC plasma vs controls; cited from earlier work
[3] = LC-MS/MS profiling of bile acids in NPC1 and control plasma; format: in vivo, human; conditions: NPC1 (n=12) vs control (n=11) plasma, peak area

Structure (SMILES)	fold elevation in NPC dried blood spots compared to controls [1]	fold elevation in plasma of NPC1 subjects [2]	fold elevation in NPC1 plasma compared to controls [3]
C[C@H](CCC(=O)O)[C@H]1CCC2C3C[C@@H](O)[C@@]4(O)C[C@@H](O)CC[C@]4(C)C3CC[C@@]21C (stereo partly drawn) [Bile acid A, 3β,5α,6β-trihydroxycholanic acid]	12 fold		
CC(C)CCC[C@@H](C)[C@H]1CC[C@H]2[C@@H]3C[C@@H](O)[C@@]4(O)C[C@@H](O)CC[C@]4(C)[C@H]3CC[C@]12C [cholestane-3β,5α,6β-triol]		10 fold	
CC(C)CCC[C@@H](C)[C@H]1CC[C@H]2[C@@H]3C(=O)C=C4C[C@@H](O)CC[C@]4(C)[C@H]3CC[C@]12C [7-ketocholesterol]		10 fold	
C[C@H](CCC(=O)NCC(=O)O)[C@H]1CC[C@H]2[C@@H]3C[C@@H](O)[C@@]4(O)C[C@@H](O)CC[C@]4(C)[C@H]3CC[C@]12C [Bile acid B, N-(3β,5α,6β-trihydroxy-cholan-24-oyl)glycine]	101 fold		144 fold

Reference: patent US10983112B2, “Bile acid biomarkers for Niemann-Pick diseases, methods and uses therefor” (Washington University, priority 2014, dated 2021)
